Measured data: PubChem BioAssay AID1224826 (NIAID, 2016)

- Screen: 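Regulators of Tlr4 signalling leading to Tnf-alpha expression in macrophages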 (primary screen)
- System: RAW264.7 G9 macrophages from mouse bearing reporters for p65 (GFP) and the Tnf promoter (mCherry)
- Knock-down reagent: siRNA pool against mouse genes, 100 nM
- Timing: 16 h of LPS stimulation, after 2 days of siRNA transfection
- Challenge: bacterial lipopolysaccharide (Salmonella minnesota R595), 10 ng/ml
- Detection: 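Imaged Tnf reporter mCherry in nuclei, minus background, normalised per plate to the median and expressed as robust z-scores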
- Direction: Tnf reporter robust z-score: higher = stronger Tnf promoter reporter signal after LPS
- Hit rule: 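Called active when robust z-score is at most -1.3, matching the median of the Tlr4 knock-down control, or over 3; control wells and wells with under 50 cells never active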
- Meaning of the calls: active = Tnf reporter clearly lowered or raised; inactive = no clear change in Tnf reporter
This is an unselected part of about 17,000 reagents tested. About 1,110 of them (6.6%) count as active. 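Active means lowered or raised reporter signal; replicate intensities are raw and not normalised per plate.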 Further read-outs or replicates are left out here.

With knock-down of Lrrn3 the results were Tnf reporter robust z-score 0.55; fewer than 50 cells in well enough cells in well; inactive.
Ppil3 gave Tnf reporter robust z-score 0.04; fewer than 50 cells in well enough cells in well; inactive.
Katnal2 scored Tnf reporter robust z-score -1.13; fewer than 50 cells in well enough cells in well; inactive.
After knock-down of Gm15850, the record shows Tnf reporter robust z-score 3.67; fewer than 50 cells in well enough cells in well; active.
After knock-down of Rdm1, the screen gave Tnf reporter robust z-score 0.66; fewer than 50 cells in well enough cells in well; inactive.
Knock-down of Ebf1 resulted in: Tnf reporter robust z-score 1.27; fewer than 50 cells in well enough cells in well; inactive.
Knock-down of Sprr1b came out at: Tnf reporter robust z-score 0.59; fewer than 50 cells in well enough cells in well; inactive.
Silencing of Tuba1a resulted in: Tnf reporter robust z-score -0.82; fewer than 50 cells in well enough cells in well; inactive.
With knock-down of Kmt2a the results were Tnf reporter robust z-score -1.63; fewer than 50 cells in well enough cells in well; active.
Against Pigm the deposit lists Tnf reporter robust z-score -0.48; fewer than 50 cells in well enough cells in well; inactive.
With knock-down of Rab21 the results were Tnf reporter robust z-score -0.55; fewer than 50 cells in well enough cells in well; inactive.
Against Mela, the entry reads Tnf reporter robust z-score -0.6; fewer than 50 cells in well enough cells in well; inactive.
After knock-down of Rbm42, the screen gave fewer than 50 cells in well fewer than 50 cells per well; well left out of calls; inactive.
With knock-down of Zfp867 the results were Tnf reporter robust z-score 2.87; fewer than 50 cells in well enough cells in well; inactive.
With knock-down of Pcdhgb5 the results were Tnf reporter robust z-score -0.14; fewer than 50 cells in well enough cells in well; inactive.
Against Upf1 the deposit lists Tnf reporter robust z-score 1.48; fewer than 50 cells in well enough cells in well; inactive.
Knock-down of Ptpn6 resulted in: Tnf reporter robust z-score -0.57; fewer than 50 cells in well enough cells in well; inactive.
Elp4 gave Tnf reporter robust z-score 1.25; fewer than 50 cells in well enough cells in well; inactive.
Snx8 gave Tnf reporter robust z-score -0.47; fewer than 50 cells in well enough cells in well; inactive.
After knock-down of Pcdhb10, the record shows Tnf reporter robust z-score -0.04; fewer than 50 cells in well enough cells in well; inactive.
Knock-down of Hook1 came out at: Tnf reporter robust z-score -0.44; fewer than 50 cells in well enough cells in well; inactive.
After knock-down of Hdac4, the record shows Tnf reporter robust z-score -1.65; fewer than 50 cells in well enough cells in well; active.
Depletion of Aup1 resulted in: Tnf reporter robust z-score 0.47; fewer than 50 cells in well enough cells in well; inactive.
Slc6a13 scored fewer than 50 cells in well fewer than 50 cells per well; well left out of calls; inactive.
After knock-down of Enkd1, the record shows Tnf reporter robust z-score -1.4; fewer than 50 cells in well enough cells in well; active.
With knock-down of Kansl2 the results were fewer than 50 cells in well fewer than 50 cells per well; well left out of calls; inactive.
With knock-down of Pogz, the record shows Tnf reporter robust z-score -0.1; fewer than 50 cells in well enough cells in well; inactive.

Part of the list above, reduced to “Tnf reporter robust z-score”.
Pcdhgb5 = -0.14
Upf1 = 1.48
Ptpn6 = -0.57
Elp4 = 1.25
